Data taken from patent publication US20190025321A1.

Molecular target: FLAG-metap2
Test: co-immunoprecipitation, anti-FLAG IP from co-transfected HEK-293T cells, immunoblot for HA-tagged CASTOR1

binding: no binding
B1: recombinant CASTOR1 (Cellular Arginine Sensor for mTORC1; protein encoded by the GATS protein-like 3 gene) (protein, human, UniProt Q8WTX7 1-329, looked up, not shown: small tags and cut ends)
chain: MELHILEHRVRVLSVARPGLWLYTHPLIKLLFLPRRSRCKFFSLTETPEDYTLMVDEEGFKELPPSEFLQVAEATWLVLNVSSHSGAAVQAAGVTKIARSVIAPLAEHHVSVLMLSTYQTDFILVREQDLSVVIHTLAQEFDIYREVGGEPVPVTRDDSSNGFPRTQHGPSPTVHPIQSPQNRFCVLTLDPETLPAIATTLIDVLFYSHSTPKEAASSSPEPSSITFFAFSLIEGYISIVMDAETQKKFPSDLLLTSSSGELWRMVRIGGQPLGFDECGIVAQIAGPLAAADISAYYISTFNFDHALVPEDGIGSVIEVLQRRQEGLAS

Results are given in words; binding and its absence hold for the method and conditions named. Binding seen in cells or lysates may run through a third protein.
